{"source": "PubChem BioAssay AID602196 (INSERM, 2012)", "screen": "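Modifiers of cisplatin sensitivity in A549 cells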", "cells": "human A549 lung cancer cells", "reagent": "siRNA pair against human genes", "timing": "48 h transfection before cisplatin; time from cisplatin to read-out not stated", "treatment": "cisplatin at a dose killing half of control-siRNA cells; exact dose and duration not given", "measured": "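Shift in cisplatin death relative to control siRNA, from -50 (all cells die) to +50 (no cells die); siRNAs harmful on their own scored 0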", "scale": "two-siRNA summed score (-2 to +2): higher = both siRNAs protect from cisplatin killing; -2 means both sensitise; mean protection from cisplatin (shift in death): higher = protection from cisplatin killing", "rule for the call": "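siRNAs harmful alone (LDH or WST-1) get 0; others get +1 for less and -1 for more cisplatin killing; genes are active when the two siRNAs give the same sign, summing to ±2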", "calls": "active = both siRNAs shift cisplatin killing the same way; inactive = no consistent shift, or siRNA harmful alone", "note": "The deposit covers about 23,000 reagents; shown is a random part of them. 455 of them (2%) count as active. 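Active includes both protection and sensitisation; some change values fall well beyond the stated -50 to +50 range.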 Not all columns of the deposit are shown. The record does not give: the amount of reagent."}
{"gene":"CDRT15P3","PubChem SID":"SID131511479","two-siRNA summed score (-2 to +2)":0,"mean protection from cisplatin (shift in death) (%)":4.4,"activity call":"inactive"}
{"gene":"TAS2R7","PubChem SID":"SID131505639","two-siRNA summed score (-2 to +2)":0,"mean protection from cisplatin (shift in death) (%)":-2.8,"activity call":"inactive"}
{"gene":"ZNF579","PubChem SID":"SID131510173","two-siRNA summed score (-2 to +2)":0,"mean protection from cisplatin (shift in death) (%)":3,"activity call":"inactive"}
{"gene":"RTP5","PubChem SID":"SID131513713","two-siRNA summed score (-2 to +2)":0,"mean protection from cisplatin (shift in death) (%)":6.9,"activity call":"inactive"}
{"gene":"NFKBIZ","PubChem SID":"SID131510642","two-siRNA summed score (-2 to +2)":0,"mean protection from cisplatin (shift in death) (%)":3.5,"activity call":"inactive"}
{"gene":"LOC285321","PubChem SID":"SID131521398","two-siRNA summed score (-2 to +2)":1,"mean protection from cisplatin (shift in death) (%)":13.3,"activity call":"inactive"}
{"gene":"ZNF181","PubChem SID":"SID131511008","two-siRNA summed score (-2 to +2)":0,"mean protection from cisplatin (shift in death) (%)":3.9,"activity call":"inactive"}
{"gene":"KLF17","PubChem SID":"SID131514724","two-siRNA summed score (-2 to +2)":0,"mean protection from cisplatin (shift in death) (%)":8.2,"activity call":"inactive"}
{"gene":"ZNF511","PubChem SID":"SID131515519","two-siRNA summed score (-2 to +2)":0,"mean protection from cisplatin (shift in death) (%)":9.3,"activity call":"inactive"}
{"gene":"PPP1R3D","PubChem SID":"SID131502335","two-siRNA summed score (-2 to +2)":-1,"mean protection from cisplatin (shift in death) (%)":-3.3,"activity call":"inactive"}
{"gene":"LOC440945","PubChem SID":"SID131516704","two-siRNA summed score (-2 to +2)":0,"mean protection from cisplatin (shift in death) (%)":11.4,"activity call":"inactive"}
{"gene":"POLR3B","PubChem SID":"SID131508475","two-siRNA summed score (-2 to +2)":0,"mean protection from cisplatin (shift in death) (%)":1.1,"activity call":"inactive"}
{"gene":"DKFZp666G057","PubChem SID":"SID131510221","two-siRNA summed score (-2 to +2)":0,"mean protection from cisplatin (shift in death) (%)":3,"activity call":"inactive"}
{"gene":"DMKN","PubChem SID":"SID131508502","two-siRNA summed score (-2 to +2)":0,"mean protection from cisplatin (shift in death) (%)":1.1,"activity call":"inactive"}
{"gene":"KIAA1394","PubChem SID":"SID131518683","two-siRNA summed score (-2 to +2)":0,"mean protection from cisplatin (shift in death) (%)":24.2,"activity call":"inactive"}
{"gene":"NEFM","PubChem SID":"SID131508479","two-siRNA summed score (-2 to +2)":0,"mean protection from cisplatin (shift in death) (%)":1.1,"activity call":"inactive"}
{"gene":"RUVBL1","PubChem SID":"SID131500373","two-siRNA summed score (-2 to +2)":-2,"mean protection from cisplatin (shift in death) (%)":-17.2,"activity call":"active"}
{"gene":"PDPN","PubChem SID":"SID131502439","two-siRNA summed score (-2 to +2)":-1,"mean protection from cisplatin (shift in death) (%)":-2.3,"activity call":"inactive"}
{"gene":"MDP1","PubChem SID":"SID131506926","two-siRNA summed score (-2 to +2)":0,"mean protection from cisplatin (shift in death) (%)":-0.8,"activity call":"inactive"}
{"gene":"LOC133491","PubChem SID":"SID131511671","two-siRNA summed score (-2 to +2)":0,"mean protection from cisplatin (shift in death) (%)":4.6,"activity call":"inactive"}

Records listed above with an active call (1):
{"gene":"RUVBL1","PubChem SID":"SID131500373","two-siRNA summed score (-2 to +2)":-2,"mean protection from cisplatin (shift in death) (%)":-17.2,"activity call":"active"}

Further reagents:
{"gene":"GRINA","PubChem SID":"SID131519485","two-siRNA summed score (-2 to +2)":1,"mean protection from cisplatin (shift in death) (%)":5.8,"activity call":"inactive"}
{"gene":"CLCN7","PubChem SID":"SID131501274","two-siRNA summed score (-2 to +2)":-1,"mean protection from cisplatin (shift in death) (%)":-10.8,"activity call":"inactive"}
{"gene":"WDHD1","PubChem SID":"SID131501498","two-siRNA summed score (-2 to +2)":-1,"mean protection from cisplatin (shift in death) (%)":-9.4,"activity call":"inactive"}
{"gene":"PLAA","PubChem SID":"SID131519598","two-siRNA summed score (-2 to +2)":1,"mean protection from cisplatin (shift in death) (%)":6.6,"activity call":"inactive"}
{"gene":"ACOT8","PubChem SID":"SID131511349","two-siRNA summed score (-2 to +2)":0,"mean protection from cisplatin (shift in death) (%)":4.2,"activity call":"inactive"}
{"gene":"SYK","PubChem SID":"SID131514633","two-siRNA summed score (-2 to +2)":0,"mean protection from cisplatin (shift in death) (%)":8,"activity call":"inactive"}
{"gene":"LOC439964","PubChem SID":"SID131517736","two-siRNA summed score (-2 to +2)":0,"mean protection from cisplatin (shift in death) (%)":14.5,"activity call":"inactive"}
{"gene":"MRPL35","PubChem SID":"SID131503220","two-siRNA summed score (-2 to +2)":0,"mean protection from cisplatin (shift in death) (%)":-12,"activity call":"inactive"}
{"gene":"MYO7B","PubChem SID":"SID131517986","two-siRNA summed score (-2 to +2)":0,"mean protection from cisplatin (shift in death) (%)":15.8,"activity call":"inactive"}
{"gene":"PLCB2","PubChem SID":"SID131516167","two-siRNA summed score (-2 to +2)":0,"mean protection from cisplatin (shift in death) (%)":10.4,"activity call":"inactive"}
{"gene":"TMEM161A","PubChem SID":"SID131519119","two-siRNA summed score (-2 to +2)":1,"mean protection from cisplatin (shift in death) (%)":2.7,"activity call":"inactive"}
